Experimental data published in article PMC8238948, “Potent inhibitors of toxic alpha-synuclein identified via cellular time-resolved FRET biosensors” (NPJ Parkinson's Disease, 2021).
Where a name gives a salt, the structure may show the parent alone.

Test system: labeled αSN (monomeric)
Experiment: smFRET measurements of αSN monomer conformation
Conditions: constructs 9–72 and 54–130
Description: SmFRET experiments were performed using two different labeled αSN constructs (residues 9–72 and residues 54–130) that report on intra-monomeric FRET (e.g., monomer conformation) of the N-terminal and C-terminal domains of αSN. […] We were not able to evaluate RO with smFRET, due to interactions of RO with the AlexaFluor-594 label.
Single-molecule FRET measurements were carried out using ~30 pM of labeled αSN in 20 mM Tris pH 7.4 and 50 mM NaCl in 8-chambered Nunc coverslips (ThermoFisher) passivated with poly(ethylene glycol) poly(L-lysine) to reduce protein adsorption to the chambers. Measurements were made on a MicroTime 200 time-resolved confocal microscope (Picoquant) as described previously. Laser power was adjusted to ~30 μW before sample illumination. Fluorescence emission was collected through the objective and passed through a 150-μm diameter pinhole. Photons were separated by an HQ585LP dichroic in combination with ET525/50M and HQ600LP filters and detected by avalanche photodiodes. Photon traces were collected in 1-ms time bins for 1 h. A cutoff of 25 counts/ms was applied to discriminate between bursts arising from fluorescently labeled protein and background noise. The FRET efficiency (Eeff) was calculated using the SymphoTime 64 software. SmFRET histograms were fit with Gaussian distributions to determine the peak Eeff values. […]

| SMILES | effect on monomeric conformation, smFRET histograms |
| --- | --- |
| COC(=O)C1=C(C)NC(C)=C([N+](=O)[O-])C1c1ccccc1C(F)(F)F (racemic) [BAY, (±)-Bay K 8644] | do not modulate monomeric conformation |
| CN(C)[C@@H]1C(O)=C(C(N)=O)C(=O)[C@@]2(O)C(O)=C3C(=O)c4c(O)ccc(Cl)c4[C@@H](O)[C@H]3C[C@@H]12 [DEM, Demeclocycline HCl] | do not modulate monomeric conformation |
